Source: PubChem BioAssay AID504791 (Drosophila RNAi Screening Center, 2011)
The deposit covers about 23,000 reagents; shown is a random part of those that have a named target and a result. In the full data, 199 (0.86%) were called active. 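Plate-scaled ratios behind the calls are not deposited; printed light signals are raw; many rows marked increased or decreased are still called inactive.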 A plus sign joins genes that one reagent is predicted to hit.

Aim: 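Factors in Argonaute-based small RNA production and activity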 (primary screen)
Cells: Drosophila S2-derived reporter cells
Reagents: long dsRNA against Drosophila genes, about 150-250 ng dsRNA per well (siRNA assay); about 80-120 ng (miRNA assay)
Timing: about 5 days (siRNA assay); about 4 days (miRNA assay)
Conditions: copper sulfate induction of reporters: 25 µM (siRNA assay); 200 mM stated (miRNA assay), 1-2 days before reading
Measurement: 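Per-well ratio of Renilla over firefly light, expressed relative to that plate's average ratio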
Reading the numbers: siRNA reporter hit score: higher = 3 marks a strong hit with raised ratio; -3 a strong hit with lowered ratio
Units: stable assay Renilla, run 1 in luminescence; stable assay firefly, run 1 in luminescence
Hit rule: 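a well was a first-pass pick when its plate-scaled ratio rose above 1.5 (siRNA assay) or 1.6 (miRNA assay), or dropped below 0.6; a gene counted only if two separate dsRNAs agreed on retest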

Depletion of Polr1B [DRSC00780] resulted in: stable assay Renilla, run 1 = 11722; stable assay firefly, run 1 = 5.02e5; inactive.
With knock-down of sns [DRSC06423] the results were stable assay Renilla, run 1 = 5298; stable assay firefly, run 1 = 2.50e5; inactive.
Knock-down of sns [DRSC07687] gave: stable assay Renilla, run 1 = 10130; stable assay firefly, run 1 = 4.79e5; inactive.
After knock-down of sns [DRSC07688] the results were stable assay Renilla, run 1 = 2508; stable assay firefly, run 1 = 3.23e5; inactive.
Against sns [DRSC07689], the values are stable assay Renilla, run 1 = 7179; stable assay firefly, run 1 = 4.64e5; inactive.
Against sns [DRSC07691], the values are stable assay Renilla, run 1 = 7059; stable assay firefly, run 1 = 4.97e5; inactive.
Silencing of sns [DRSC07692] resulted in: stable siRNA reporter change reporter ratio raised past the hit cutoff; stable assay Renilla, run 1 = 6847; stable assay firefly, run 1 = 2.33e5; inactive.
wor [DRSC03637] scored stable assay Renilla, run 1 = 7688; stable assay firefly, run 1 = 4.14e5; inactive.
Against AGO2 [DRSC09999], the values are siRNA reporter hit score 3; stable siRNA reporter change reporter ratio raised past the hit cutoff; stable assay Renilla, run 1 = 15248; stable assay firefly, run 1 = 4.85e5; inactive.
AGO2 [DRSC10847] gave siRNA reporter hit score 3; stable siRNA reporter change reporter ratio raised past the hit cutoff; stable assay Renilla, run 1 = 20845; stable assay firefly, run 1 = 3.26e5; active.
CG31954 [DRSC00580] showed stable assay Renilla, run 1 = 15256; stable assay firefly, run 1 = 6.60e5; inactive.
CG12688 (retired record) [DRSC17877] scored stable assay Renilla, run 1 = 3220; stable assay firefly, run 1 = 3.26e5; inactive.
After knock-down of CG12688 (retired record) [DRSC17878], the screen gave stable assay Renilla, run 1 = 3916; stable assay firefly, run 1 = 3.60e5; inactive.
With knock-down of agt [DRSC12611], the screen gave stable assay Renilla, run 1 = 6814; stable assay firefly, run 1 = 4.27e5; inactive.
Silencing of AcCoAS [DRSC11477] came out at: stable assay Renilla, run 1 = 5363; stable assay firefly, run 1 = 3.55e5; inactive.
AcCoAS [DRSC11603] scored stable assay Renilla, run 1 = 8126; stable assay firefly, run 1 = 4.18e5; inactive.
Against AcCoAS [DRSC22850] the deposit lists stable assay Renilla, run 1 = 4327; stable assay firefly, run 1 = 4.98e5; inactive.
With knock-down of tkv [DRSC00860], the screen gave stable assay Renilla, run 1 = 4000; stable assay firefly, run 1 = 3.84e5; inactive.
tkv [DRSC03623] showed stable assay Renilla, run 1 = 14684; stable assay firefly, run 1 = 4.77e5; inactive.
tkv [DRSC22606] gave stable assay Renilla, run 1 = 5183; stable assay firefly, run 1 = 4.41e5; inactive.
With knock-down of CG9263 [DRSC03176], the screen gave stable assay Renilla, run 1 = 6770; stable assay firefly, run 1 = 3.72e5; inactive.
Depletion of CG6044 [DRSC04522] gave: stable assay Renilla, run 1 = 6022; stable assay firefly, run 1 = 5.19e5; inactive.
For cyp33 + CG34194 [DRSC05666], the entry reads stable assay Renilla, run 1 = 5695; stable assay firefly, run 1 = 3.72e5; inactive.
After knock-down of SkpB [DRSC07683], the screen gave stable assay Renilla, run 1 = 5924; stable assay firefly, run 1 = 5.16e5; inactive.
Knock-down of SkpB [DRSC25160] resulted in: miRNA reporter change reporter ratio lowered past the hit cutoff; inactive.
Silencing of caup [DRSC11334] resulted in: stable assay Renilla, run 1 = 5648; stable assay firefly, run 1 = 2.81e5; inactive.
After knock-down of caup [DRSC23050] the results were stable assay Renilla, run 1 = 4891; stable assay firefly, run 1 = 3.50e5; inactive.
Depletion of CG8006 [DRSC10949] came out at: stable assay Renilla, run 1 = 7802; stable assay firefly, run 1 = 5.17e5; inactive.
